Experimental data: patent publication US11858993B2, “Multi-specific antibodies with affinity for human A33 antigen and DOTA metal complex and uses thereof” (Memorial Sloan Kettering Cancer Center, priority 2015, dated 2024)

Columns and labels:
[1] = test system: A33-positive SW1222 tumor; assay: Estimation of absorbed doses and therapeutic index for PRIT; format: in vivo, mice; settings: ratio of absorbed doses; single-cycle PRIT
Excerpt: Exemplary estimates of absorbed doses for tumor and select normal tissue in female athymic mice carrying s.c. A33 positive-colorectal cancer tumors for PRIT including the optimum huA33-C825 and dextran-clearing agent doses are set forth in Table 6.

SW1222 s.c. xenografts = assay: Three-cycle theranostic PRIT with nanoSPECT/CT dosimetry; format: in vivo, Nude mice; settings: three-cycle PRIT (total 165 MBq)
Procedure: Nude mice bearing established SW1222 s.c. xenografts (n=20; tumor volume=102±40 mm^3; average±standard deviation (SD)) underwent treatment (n=5-10/group) with either: no treatment (n=5), ^177Lu-DOTA-Bn only (n=5), or a three-cycle PRIT regimen consisting of anti-GPA33 PRIT+55 MBq of ^177Lu-DOTA-Bn (n=10; total: 165 MBq). Serial nanoSPECT/CT imaging was conducted on five randomly selected mice undergoing DPRIT up to 160 hours post-injection of the first cycle of ^177Lu-DOTA-Bn for dosimetry calculations.

## huA33-C825: bispecific antibody: humanized A33 IgG1 with murine C825 anti-DOTA-Bn scFv linked to the light chain C-terminus
[1]
  Therapeutic Index, tumor to Blood: 73
  Therapeutic Index, tumor to Bone: 110
  Therapeutic Index, tumor to Heart: 47
  Therapeutic Index, tumor to Kidneys: 12
  Therapeutic Index, tumor to Large Intestine: 82
  Therapeutic Index, tumor to Liver: 10
  Therapeutic Index, tumor to Lung: 37
  Therapeutic Index, tumor to Muscle: 219
  Therapeutic Index, tumor to Small Intestine: 132
  Therapeutic Index, tumor to Spleen: 10
  Therapeutic Index, tumor to Stomach: 110
SW1222 s.c. xenografts
  therapeutic index (TI), blood: 93
  therapeutic index (TI), kidney: 16
